These results got no clear call from the source, so the numbers are uncertain. How the source made its calls: active means hit-call score of the fitted dose curve at least 0.9, where 1 is the maximum; inconclusive means response in the unintended direction; inactive means score below 0.9.
Key:
[1] = ATG_GAL4_TRANS: Attagene TRANS-FACTORIAL HepG2 Assay for GAL4 (Internal Marker) (AID 2282976); conditions: HepG2 Attagene TRANS GAL4 internal marker reporter
Outline: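 First, HepG2 cells were transfected with reporter units under GAL4-UAS control. Next, they were treated with chemical for 24 h. Finally, RNA was reverse-transcribed, PCR-amplified, FAM-labelled and resolved by capillary electrophoresis, with induction scored against DMSO.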

By UniProt entry, the sequences of proteins in these tests, tags left out.
UniProt P43354, whole entry: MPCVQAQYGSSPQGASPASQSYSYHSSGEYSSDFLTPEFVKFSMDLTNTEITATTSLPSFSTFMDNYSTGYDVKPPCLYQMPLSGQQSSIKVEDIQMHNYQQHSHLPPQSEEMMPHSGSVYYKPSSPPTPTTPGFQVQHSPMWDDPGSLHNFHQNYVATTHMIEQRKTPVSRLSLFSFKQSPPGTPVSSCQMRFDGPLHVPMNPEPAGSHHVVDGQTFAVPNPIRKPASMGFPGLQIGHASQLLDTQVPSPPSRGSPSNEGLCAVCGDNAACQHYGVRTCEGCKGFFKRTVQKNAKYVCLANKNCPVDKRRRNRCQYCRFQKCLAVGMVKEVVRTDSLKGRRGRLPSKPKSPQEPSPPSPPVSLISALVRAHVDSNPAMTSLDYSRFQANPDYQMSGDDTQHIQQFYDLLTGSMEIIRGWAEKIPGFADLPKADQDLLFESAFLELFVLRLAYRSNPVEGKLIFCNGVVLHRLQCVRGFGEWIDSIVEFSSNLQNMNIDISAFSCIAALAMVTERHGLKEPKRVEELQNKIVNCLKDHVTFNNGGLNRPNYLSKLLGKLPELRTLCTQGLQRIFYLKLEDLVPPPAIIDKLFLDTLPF
UniProt Q03181, whole entry: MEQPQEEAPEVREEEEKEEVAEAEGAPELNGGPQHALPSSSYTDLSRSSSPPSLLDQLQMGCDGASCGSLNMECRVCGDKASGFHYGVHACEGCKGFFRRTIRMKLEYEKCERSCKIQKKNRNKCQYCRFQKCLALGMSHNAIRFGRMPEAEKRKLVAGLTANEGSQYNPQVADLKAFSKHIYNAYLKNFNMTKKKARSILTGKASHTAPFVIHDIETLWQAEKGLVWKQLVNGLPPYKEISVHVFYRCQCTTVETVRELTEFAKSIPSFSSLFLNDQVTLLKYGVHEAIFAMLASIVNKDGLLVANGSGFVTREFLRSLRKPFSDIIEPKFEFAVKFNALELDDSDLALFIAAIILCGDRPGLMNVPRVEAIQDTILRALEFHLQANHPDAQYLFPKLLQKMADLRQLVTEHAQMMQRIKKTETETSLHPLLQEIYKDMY
UniProt P37231, whole entry: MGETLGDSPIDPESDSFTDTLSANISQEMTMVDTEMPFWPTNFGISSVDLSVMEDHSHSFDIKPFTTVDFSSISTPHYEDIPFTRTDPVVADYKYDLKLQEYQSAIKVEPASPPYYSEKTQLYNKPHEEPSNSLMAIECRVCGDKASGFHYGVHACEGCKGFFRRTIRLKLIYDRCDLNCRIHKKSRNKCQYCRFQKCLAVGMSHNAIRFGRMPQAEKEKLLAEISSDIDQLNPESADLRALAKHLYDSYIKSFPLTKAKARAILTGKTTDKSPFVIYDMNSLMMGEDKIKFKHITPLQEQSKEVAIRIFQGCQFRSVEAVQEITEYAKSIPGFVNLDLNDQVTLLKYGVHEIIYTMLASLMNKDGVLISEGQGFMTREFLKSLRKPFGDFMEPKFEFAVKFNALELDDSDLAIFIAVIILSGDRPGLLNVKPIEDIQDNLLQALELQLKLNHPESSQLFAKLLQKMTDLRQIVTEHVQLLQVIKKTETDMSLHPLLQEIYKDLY
UniProt P13631, whole entry: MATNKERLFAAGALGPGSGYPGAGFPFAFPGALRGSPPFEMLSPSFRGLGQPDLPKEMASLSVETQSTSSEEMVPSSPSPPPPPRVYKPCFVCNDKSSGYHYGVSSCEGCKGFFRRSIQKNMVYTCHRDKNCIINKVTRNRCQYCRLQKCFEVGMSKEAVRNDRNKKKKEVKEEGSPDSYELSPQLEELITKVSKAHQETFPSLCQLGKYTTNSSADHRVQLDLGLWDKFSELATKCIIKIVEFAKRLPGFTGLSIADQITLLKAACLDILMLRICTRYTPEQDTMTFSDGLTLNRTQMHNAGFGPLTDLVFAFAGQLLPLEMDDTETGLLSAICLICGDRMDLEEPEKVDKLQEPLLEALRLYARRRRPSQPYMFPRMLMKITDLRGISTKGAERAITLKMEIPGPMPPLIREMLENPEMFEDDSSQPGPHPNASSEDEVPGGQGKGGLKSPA
UniProt P10827, whole entry: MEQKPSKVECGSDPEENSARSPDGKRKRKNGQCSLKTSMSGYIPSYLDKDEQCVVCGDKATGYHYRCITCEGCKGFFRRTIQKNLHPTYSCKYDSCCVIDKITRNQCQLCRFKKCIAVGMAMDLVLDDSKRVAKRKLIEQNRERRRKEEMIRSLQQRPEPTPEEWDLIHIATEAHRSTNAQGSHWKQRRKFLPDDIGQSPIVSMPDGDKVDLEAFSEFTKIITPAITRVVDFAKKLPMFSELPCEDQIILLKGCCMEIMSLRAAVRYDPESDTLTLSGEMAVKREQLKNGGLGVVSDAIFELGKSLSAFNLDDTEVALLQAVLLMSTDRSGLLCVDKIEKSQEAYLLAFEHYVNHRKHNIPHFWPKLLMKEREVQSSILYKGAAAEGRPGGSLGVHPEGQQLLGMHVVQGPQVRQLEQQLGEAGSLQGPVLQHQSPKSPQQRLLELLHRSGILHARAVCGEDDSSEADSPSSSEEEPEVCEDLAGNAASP
UniProt P42336, whole entry: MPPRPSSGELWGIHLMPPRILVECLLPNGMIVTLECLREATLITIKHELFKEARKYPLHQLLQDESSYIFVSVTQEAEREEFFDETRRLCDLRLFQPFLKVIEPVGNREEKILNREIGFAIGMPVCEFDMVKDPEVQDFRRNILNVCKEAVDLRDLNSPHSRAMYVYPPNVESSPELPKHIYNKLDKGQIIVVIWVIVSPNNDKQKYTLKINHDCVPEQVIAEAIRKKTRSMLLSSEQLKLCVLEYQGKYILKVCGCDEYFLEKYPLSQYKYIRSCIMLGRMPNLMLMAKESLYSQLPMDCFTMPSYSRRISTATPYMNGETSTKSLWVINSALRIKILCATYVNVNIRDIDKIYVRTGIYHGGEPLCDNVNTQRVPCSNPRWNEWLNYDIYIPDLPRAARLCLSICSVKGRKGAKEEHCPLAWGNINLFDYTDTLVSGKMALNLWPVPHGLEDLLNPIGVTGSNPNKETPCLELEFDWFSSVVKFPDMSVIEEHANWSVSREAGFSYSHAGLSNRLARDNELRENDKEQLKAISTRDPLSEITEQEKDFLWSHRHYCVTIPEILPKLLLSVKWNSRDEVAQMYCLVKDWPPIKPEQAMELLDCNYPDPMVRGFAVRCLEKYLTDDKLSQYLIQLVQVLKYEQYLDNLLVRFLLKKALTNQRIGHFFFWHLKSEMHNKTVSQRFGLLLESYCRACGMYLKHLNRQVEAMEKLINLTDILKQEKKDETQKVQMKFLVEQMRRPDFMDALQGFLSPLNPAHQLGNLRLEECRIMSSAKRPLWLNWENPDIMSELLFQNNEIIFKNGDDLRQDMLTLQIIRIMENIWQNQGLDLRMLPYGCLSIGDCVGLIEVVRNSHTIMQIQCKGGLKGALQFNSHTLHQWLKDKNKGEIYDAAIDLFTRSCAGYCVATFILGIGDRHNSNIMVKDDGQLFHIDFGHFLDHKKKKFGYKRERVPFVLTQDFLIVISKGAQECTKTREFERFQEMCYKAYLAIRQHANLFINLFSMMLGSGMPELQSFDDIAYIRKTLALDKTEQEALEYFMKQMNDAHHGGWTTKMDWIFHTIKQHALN
UniProt P04150, whole entry: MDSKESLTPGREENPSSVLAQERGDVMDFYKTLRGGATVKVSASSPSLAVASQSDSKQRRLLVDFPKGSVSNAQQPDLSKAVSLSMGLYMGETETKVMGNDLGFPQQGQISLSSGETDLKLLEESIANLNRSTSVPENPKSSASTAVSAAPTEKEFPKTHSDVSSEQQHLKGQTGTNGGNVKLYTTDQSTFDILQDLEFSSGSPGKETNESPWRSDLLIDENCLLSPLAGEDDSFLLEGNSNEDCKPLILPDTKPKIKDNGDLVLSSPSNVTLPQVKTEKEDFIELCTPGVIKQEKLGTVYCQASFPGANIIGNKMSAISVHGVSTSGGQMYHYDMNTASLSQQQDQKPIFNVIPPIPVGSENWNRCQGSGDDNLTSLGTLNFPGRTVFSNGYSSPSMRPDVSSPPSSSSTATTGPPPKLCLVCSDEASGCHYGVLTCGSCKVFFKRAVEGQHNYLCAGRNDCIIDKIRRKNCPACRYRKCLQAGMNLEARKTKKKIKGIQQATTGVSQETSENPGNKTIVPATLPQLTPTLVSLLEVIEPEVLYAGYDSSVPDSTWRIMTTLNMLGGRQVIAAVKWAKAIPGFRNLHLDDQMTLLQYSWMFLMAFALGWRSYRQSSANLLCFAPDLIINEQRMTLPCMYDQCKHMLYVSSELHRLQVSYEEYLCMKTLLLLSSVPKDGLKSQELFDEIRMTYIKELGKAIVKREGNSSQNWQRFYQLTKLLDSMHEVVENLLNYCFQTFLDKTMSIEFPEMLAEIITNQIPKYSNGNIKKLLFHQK
UniProt Q13133, whole entry: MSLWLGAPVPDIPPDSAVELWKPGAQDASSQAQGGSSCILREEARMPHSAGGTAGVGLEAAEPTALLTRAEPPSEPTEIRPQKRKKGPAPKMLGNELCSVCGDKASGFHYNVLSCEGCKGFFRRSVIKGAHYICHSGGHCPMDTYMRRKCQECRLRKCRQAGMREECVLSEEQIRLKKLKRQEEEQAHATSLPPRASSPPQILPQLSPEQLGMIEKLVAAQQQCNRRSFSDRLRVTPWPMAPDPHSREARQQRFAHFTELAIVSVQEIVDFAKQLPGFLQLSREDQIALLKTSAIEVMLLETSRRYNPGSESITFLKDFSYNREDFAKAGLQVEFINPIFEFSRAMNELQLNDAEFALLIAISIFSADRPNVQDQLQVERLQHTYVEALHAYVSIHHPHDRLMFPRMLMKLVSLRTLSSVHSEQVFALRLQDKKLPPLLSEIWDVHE
UniProt P55055, whole entry: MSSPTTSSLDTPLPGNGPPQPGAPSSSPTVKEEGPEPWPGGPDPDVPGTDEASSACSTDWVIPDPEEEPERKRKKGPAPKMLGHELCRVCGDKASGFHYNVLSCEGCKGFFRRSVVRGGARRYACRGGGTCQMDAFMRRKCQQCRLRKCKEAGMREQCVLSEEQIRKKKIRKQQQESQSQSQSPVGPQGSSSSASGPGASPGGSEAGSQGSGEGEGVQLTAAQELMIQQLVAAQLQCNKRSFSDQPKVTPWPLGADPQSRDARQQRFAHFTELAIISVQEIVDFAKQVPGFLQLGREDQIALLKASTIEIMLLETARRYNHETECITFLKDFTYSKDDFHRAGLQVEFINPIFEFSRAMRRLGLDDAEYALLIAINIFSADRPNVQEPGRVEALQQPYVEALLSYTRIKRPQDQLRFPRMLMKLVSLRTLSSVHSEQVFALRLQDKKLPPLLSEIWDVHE
UniProt P41235, whole entry: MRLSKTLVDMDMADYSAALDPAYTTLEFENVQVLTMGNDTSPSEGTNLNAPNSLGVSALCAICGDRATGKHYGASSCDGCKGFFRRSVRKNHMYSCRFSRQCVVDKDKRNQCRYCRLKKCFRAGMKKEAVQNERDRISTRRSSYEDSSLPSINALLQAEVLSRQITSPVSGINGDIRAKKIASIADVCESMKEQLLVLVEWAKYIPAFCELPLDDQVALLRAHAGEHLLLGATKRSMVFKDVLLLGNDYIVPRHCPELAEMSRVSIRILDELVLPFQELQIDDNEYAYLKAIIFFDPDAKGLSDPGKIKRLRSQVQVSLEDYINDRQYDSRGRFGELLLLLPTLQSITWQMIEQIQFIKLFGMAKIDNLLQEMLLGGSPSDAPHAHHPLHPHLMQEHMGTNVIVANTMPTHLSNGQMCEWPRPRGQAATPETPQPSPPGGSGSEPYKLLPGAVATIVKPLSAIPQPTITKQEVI
UniProt P19793, whole entry: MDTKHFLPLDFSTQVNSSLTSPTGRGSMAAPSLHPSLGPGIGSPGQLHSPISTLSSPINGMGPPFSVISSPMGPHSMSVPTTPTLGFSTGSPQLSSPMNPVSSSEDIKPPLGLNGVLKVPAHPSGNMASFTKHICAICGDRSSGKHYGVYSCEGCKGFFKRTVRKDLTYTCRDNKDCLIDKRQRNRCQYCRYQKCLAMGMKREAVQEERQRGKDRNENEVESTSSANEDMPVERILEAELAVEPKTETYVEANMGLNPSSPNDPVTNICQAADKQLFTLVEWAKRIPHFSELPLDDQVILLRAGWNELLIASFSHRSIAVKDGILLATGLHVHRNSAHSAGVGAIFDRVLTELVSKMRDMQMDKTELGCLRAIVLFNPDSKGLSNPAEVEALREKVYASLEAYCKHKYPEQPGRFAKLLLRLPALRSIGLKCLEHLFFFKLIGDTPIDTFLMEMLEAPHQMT

[2] = target: Nuclear receptor subfamily 4 group A member 2 (Homo sapiens) (UniProt P43354); experiment: ATG_NURR1_TRANS: Attagene TRANS-FACTORIAL HepG2 Assay for human Nuclear Receptor Related Protein 1 (NURR1) (AID 2282985); conditions: HepG2 Attagene TRANS reporter, mRNA readout
Outline: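 Reporter transcript induction, measured by RT-PCR with fluorescent labelling, HpaI digestion and capillary electrophoresis, after 24 hr dosing of human HepG2 cells transiently expressing an exogenous NR-Gal4 fusion with GAL4-UAS-driven reporters; DMSO as baseline.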

[3] = ATG_M_06_TRANS: Attagene TRANS-FACTORIAL HepG2 Assay for M06 Transcription Factor (Internal Marker) (AID 2282983); conditions: HepG2 Attagene TRANS M06 internal marker reporter;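 further: reporter transcript level by RT-PCR then capillary electrophoresis fluorescence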
Outline: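 Background control endpoint: reporter mRNA from transiently transfected HepG2 after 24 h dosing, detected by RT-PCR with capillary electrophoresis fluorescence. Analysed for gain versus DMSO.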

[4] = target: human Peroxisome Proliferator-activated Receptor delta (PPARd), PPARD (gene 5467) (UniProt Q03181); experiment: ATG_PPARd_TRANS: Attagene TRANS-FACTORIAL HepG2 Assay for human Peroxisome Proliferator-activated Receptor delta (PPARd) (AID 2283002)
Outline: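 Cell-based TRANS reporter: HepG2, transient MRTU transfection, 24 h exposure. Readout = reporter mRNA (RT-PCR/CE, 6-FAM). Gain-of-signal fit vs DMSO control.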

[5] = target: Retinoic acid receptor alpha (Homo sapiens) (UniProt P10276); experiment: ATG_RARa_TRANS: Attagene TRANS-FACTORIAL HepG2 Assay for human Retinoic Acid Receptor alpha (RARa) (AID 2283005);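 on AC50: potency for increased reporter signal meaning RARa activation over DMSO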
Outline: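 Reporter transcripts, measured by RT-PCR with fluorescent labeling and capillary electrophoresis after 24 h dosing, reflect activity of an exogenous human RARa–GAL4 fusion in transiently transfected HepG2. Fitted for increase relative to DMSO.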

[6] = target: Peroxisome proliferator-activated receptor gamma (Homo sapiens) (UniProt P37231); experiment: ATG_PPARg_TRANS: Attagene TRANS-FACTORIAL HepG2 Assay for human Peroxisome Proliferator-activated Receptor-gamma (PPARg) (AID 2283007)
Outline: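 After 24 h of chemical exposure, transfected HepG2 cells carrying PPARγ-Gal4 chimera reporter constructs are lysed for RNA. Reporter transcripts are measured by RT-PCR and capillary electrophoresis with fluorescent labelling, and gain of signal is fitted versus DMSO.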

[7] = target: human Retinoic Acid Receptor gamma (RARg), RARG (gene 5916) (UniProt P13631); experiment: ATG_RARg_TRANS: Attagene TRANS-FACTORIAL HepG2 Assay for human Retinoic Acid Receptor gamma (RARg) (AID 2283009);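 further: AC50 is for reporter induction above DMSO meaning RARg activation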
Outline: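 Transactivation of exogenous RARg-Gal4 fusion measured as reporter transcript induction after 24 h in transfected HepG2 cells. RNA reverse-transcribed, amplified, fluorescently labeled and resolved by capillary electrophoresis; increase relative to DMSO.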

[8] = target: human RAR-related Orphan Receptor beta (RORb), RORB (gene 6096) (UniProt Q92753); experiment: ATG_RORb_TRANS: Attagene TRANS-FACTORIAL HepG2 Assay for human RAR-related Orphan Receptor beta (RORb) (AID 2283010);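 further: potency for increased reporter mRNA meaning activation of RORb-Gal4 chimera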
Outline: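 Read-out is reporter mRNA induction, quantified by RT-PCR with fluorescent capillary electrophoresis, 24 h post-dose in transiently transfected HepG2 expressing exogenous NR-Gal4 chimera. Activity fitted upward versus DMSO.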

[9] = target: human RAR-related Orphan Receptor gamma (RORg), RORC (gene 6097) (UniProt P51449); experiment: ATG_RORg_TRANS: Attagene TRANS-FACTORIAL HepG2 Assay for human RAR-related Orphan Receptor gamma (RORg) (AID 2283011)
Outline: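 First, HepG2 liver cells were transfected with GAL4-UAS-driven reporter constructs and the RORg-Gal4 fusion. Next, they were treated with chemical for 24 h. Finally, reporter mRNA was quantified by RT-PCR and capillary electrophoresis, with upward activity fitted against DMSO.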

[10] = target: human Thyroid Receptor alpha (THRa1), THRA (gene 7067) (UniProt P10827); experiment: ATG_THRa1_TRANS: Attagene TRANS-FACTORIAL HepG2 Assay for human Thyroid Receptor alpha (THRa1) (AID 2283014)
Outline: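 Reporter transcript induction, read by capillary electrophoresis of 6-FAM-labelled RT-PCR products, reflects activity of a transfected THRa1-Gal4 fusion in HepG2 liver cells. Cells were dosed for 24 h; activity was fitted in the positive direction against DMSO.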

[11] = target: human Beta-secretase (BACE), BACE1 (gene 23621) (UniProt P56817); experiment: NVS_ENZ_hBACE: NovaScreen (NVS) Enzymatic Assay for human Beta-secretase (BACE) (AID 2283140);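 further: hits are inhibitors that reduce fluorescent substrate signal versus DMSO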
Outline: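 Enzyme from SF9 cells was incubated 1 hour with compound and fluorogenic substrate, activity read by fluorescence. Single-concentration duplicates at 25 uM preceded concentration-response follow-up; fitting relative to DMSO baseline.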

[12] = target: human Phosphoinositide 3-kinase alpha (PI3Ka), PIK3CA (gene 5290) (UniProt P42336); experiment: NVS_ENZ_hPI3Ka: NovaScreen (NVS) Enzymatic Assay for human Phosphoinositide 3-kinase alpha (PI3Ka) (AID 2283196)
Outline: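 Duplicate single-point screen (25 uM), then singleton dose-response (max 50 uM) for compounds meeting the threshold. Cell-free kinase reaction, 1 h; fluorescent mobility-shift readout.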

[13] = ACEA_ER_AUC_viability: ACEA Biosciences xCELLigence Real-Time Cell Analysis on Estrogen Receptor Agonism for Viability (AID 2283782);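 further: hit means loss of impedance signal meaning reduced cell growth or viability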
Outline: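 Viability endpoint: reduced impedance area under the curve relative to DMSO, recorded by real-time electrode sensing over ~80 h of continuous exposure. Duplicate plates of T47D in hormone-depleted medium; eight concentrations, 1:4 dilutions, 100 uM maximum.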

[14] = ATG_M_19_TRANS: Attagene TRANS-FACTORIAL HepG2 Assay for M19 Transcription Factor (Internal Marker) (AID 2282974); conditions: HepG2 Attagene TRANS-FACTORIAL M19 internal marker reporter
Outline: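 Background-control readout: after 24 h chemical exposure of transfected HepG2 carrying GAL4-driven reporter units, RNA was reverse-transcribed, amplified, fluorescently labeled and sized by capillary electrophoresis; gain-of-signal fit against DMSO.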

[15] = target: Glucocorticoid receptor (Homo sapiens) (UniProt P04150); experiment: ATG_GR_TRANS: Attagene TRANS-FACTORIAL HepG2 Assay for human Glucocorticoid Receptor (GR) (AID 2282978); conditions: HepG2 Attagene TRANS GR reporter, mRNA transcription;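 further: activators score as hits since higher reporter transcript over DMSO is fitted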
[16] = target: Bile acid receptor (Homo sapiens) (UniProt Q96RI1); experiment: ATG_FXR_TRANS: Attagene TRANS-FACTORIAL HepG2 Assay for Farnesoid X Receptor (FXR) (AID 2282979); conditions: HepG2 Attagene TRANS FXR-GAL4 reporter transcription;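 further: hits raise reporter mRNA above DMSO so AC50 marks FXR activation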
Outline: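 Transient transfection of HepG2 with multiplexed GAL4-UAS reporter units; exogenous FXR-GAL4 chimera. Dose 24 h → TriZol RNA → oligo(dT) RT → PCR, 6-FAM primer extension, HpaI cut → CE. Gain vs DMSO.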

[17] = target: Oxysterols receptor LXR-alpha (Homo sapiens) (UniProt Q13133); experiment: ATG_LXRa_TRANS: Attagene TRANS-FACTORIAL HepG2 Assay for human Liver X Receptor alpha (LXRa) (AID 2282980); conditions: HepG2 Attagene TRANS reporter, LXRa transactivation
Outline: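 Transfect HepG2 with GAL4-UAS multiplex reporter constructs (TRANS format, chimeric receptor-GAL4); treat 24 h; extract RNA, reverse-transcribe, PCR-amplify, FAM-label, HpaI-digest; resolve fragments by capillary electrophoresis. Upward response vs DMSO.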

[18] = target: Oxysterols receptor LXR-beta (Homo sapiens) (UniProt P55055); experiment: ATG_LXRb_TRANS: Attagene TRANS-FACTORIAL HepG2 Assay for human Liver X Receptor beta (LXRb) (AID 2282981); conditions: HepG2 Attagene TRANS GAL4-LXRb reporter, mRNA
Outline: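 After 24 h chemical treatment of transfected HepG2 cells carrying exogenous NR-Gal4 chimeras, reporter mRNA was quantified by fluorescent RT-PCR and capillary electrophoresis; activity taken as increase over DMSO controls.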

[19] = target: Hepatocyte nuclear factor 4-alpha (Homo sapiens) (UniProt P41235); experiment: ATG_HNF4a_TRANS: Attagene TRANS-FACTORIAL HepG2 Assay for human Hepatocyte Nuclear Factor 4 alpha (HNF4a) (AID 2282982); conditions: HepG2 HNF4a transactivation reporter, mRNA readout
Outline: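 Activity of an exogenous HNF4a–Gal4 fusion scored as induced GAL4-UAS reporter transcripts after 24 h chemical exposure of transfected human HepG2 cells. Read-out via RT-PCR with 6-FAM labelling and capillary electrophoresis; rise over DMSO baseline.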

[20] = ATG_M_32_TRANS: Attagene TRANS-FACTORIAL HepG2 Assay for M32 Transcription Factor (Internal Marker) (AID 2282984); conditions: HepG2 Attagene TRANS M32 internal marker reporter;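 further: transcript level of a background control reporter unit measured by RT-PCR and capillary electrophoresis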
Outline: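 Internal background reporter in transfected HepG2: after 24 h chemical exposure, RNA reverse-transcribed, reporter cDNA amplified, fluorescently labelled and HpaI-cut, then sized by capillary electrophoresis. Gain of signal fitted against DMSO control.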

[21] = target: Retinoic acid receptor RXR-alpha (Homo sapiens) (UniProt P19793); experiment: ATG_RXRa_TRANS: Attagene TRANS-FACTORIAL HepG2 Assay for human Retinoid X Receptor alpha (RXRa) (AID 2283012)
Outline: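 TRANS format reporting activity of exogenous RXRa-Gal4 chimera in transiently transfected HepG2, 24 h exposure. Reporter transcripts quantified by RT-PCR with capillary electrophoresis, with gain of signal scored relative to DMSO.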

[22] = target: human Retinoid X Receptor beta (RXRb), RXRB (gene 6257) (UniProt P28702); experiment: ATG_RXRb_TRANS: Attagene TRANS-FACTORIAL HepG2 Assay for human Retinoid X Receptor beta (RXRb) (AID 2283013)
Outline: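 Readout is reporter transcript induction after 24 h dosing. It is measured by RT-PCR of total RNA followed by fluorescent capillary electrophoresis. HepG2 liver cells carry transfected multiple reporter units driven by an exogenous RXRb-Gal4 fusion; activity is relative to DMSO.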

[23] = target: human Vitamin D Receptor (VDR), VDR (gene 7421) (UniProt P11473); experiment: ATG_VDR_TRANS: Attagene TRANS-FACTORIAL HepG2 Assay for human Vitamin D Receptor (VDR) (AID 2283022)
Outline: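 Steps: transfect HepG2 with GAL4-UAS-driven reporter constructs; dose compounds 24 h; isolate RNA, reverse-transcribe, PCR-amplify with 6-FAM-labelled primer extension and HpaI digestion; quantify fragments by capillary electrophoresis relative to DMSO.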

[24] = target: Bile acid receptor (Homo sapiens) (UniProt Q96RI1); experiment: OT_FXR_FXRSRC1_0480: Odyssey Thera (OT) 8-hour HEK293T Protein-Complementation Assay for Farnesoid X receptor/SRC-1 Co-activator (AID 2283383)
Outline: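 Binding of FXR to coactivator SRC-1 was read as fluorescence from a reconstituted split reporter in HEK293T cells, 8 h after chemical addition. Only increases in signal versus DMSO were fit.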

[25] = Tanguay_ZF_120hpf_JAW_legacy: (Legacy) Oregon State University Tanguay Lab 120 Hour Post-fertilization zebrafish Assay for Jaw Malformation (AID 2283638);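 further: active means more embryos with jaw malformation than DMSO controls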
Outline: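 Steps: dechorionate 4 hpf embryos (pronase); plate 1/well at 6 hpf; add test chemical, 0.64% DMSO final; seal, cover, hold at 28C statically to 120 hpf; score jaw defect presence/absence microscopically. Dead embryos not scored.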

[26] = Tanguay_ZF_120hpf_OTIC_legacy: (Legacy) Oregon State University Tanguay Lab 120 Hour Post-fertilization zebrafish Assay for Otic Vesicle Malformation (AID 2283639)
Outline: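 Binary scoring of otic vesicle defects at 120 hpf in zebrafish (Tropical 5D) held under static exposure at 28C, sealed and shaded, with final DMSO 0.64%. Embryos dying by 24 or 120 hpf excluded; fitted positively against DMSO.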

[27] = CCTE_Harrill_HTTr_CellCount_MCF7: CCTE's Cell Proliferation Assessment for the High-Throughput Transcriptomics (HTTr) Platform, Harrill Lab (AID 2284012);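 further: cells exposed to compound for six hours; intended direction is loss of nuclei count meaning fewer cells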
Outline: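 Cell count from high-content imaging of Hoechst-labeled nuclei serves as viability/growth readout. Chemicals were applied to MCF-7 cells in eight concentrations for six hours, with fitting in both directions relative to DMSO.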

Measured: AC50

Cc1cc([N+](=O)[O-])cc([N+](=O)[O-])c1O
inconclusive: [1] | [2]

COc1ccc([N+](=O)[O-])cc1[N+](=O)[O-]
inconclusive: [1] 176 µM | [3] | [2] | [4] 19.8 µM | [5] 26.9 µM | [6] 0.102 µM | [7] 60 µM | [8] 179 µM | [9] | [10] | [11] 4.96 µM | [12] 5.94 µM | [13] 0.237 µM

Cc1c([N+](=O)[O-])cccc1[N+](=O)[O-]
inconclusive: [14] 0.0445 µM | [1] | [15] | [16] 180 µM | [17] 19.8 µM | [18] | [19] | [20] | [2] 0.00914 µM | [5] | [8] 0.786 µM | [21] 179 µM | [22] 23.8 µM | [10] 1.77 µM | [23] 0.464 µM | [24] 50 µM | [25] 1.76 µM | [26] 1.21 µM | [13] 50 µM | [27]
